US20250108100A1, “C-TERMINAL FRAGMENT OF APOLIPOPROTEIN E AND APPLICATION THEREOF IN INHIBITING y-SECRETASE ACTIVITY” (SYNPHATEC (SHANGHAI) BIOPHARMACEUTICAL TECHNOLOGY CO., LTD., priority 2022, published 2025)

What was measured:
primary cultured neurons = experiment: Immunofluorescence of ApoE from culture medium in primary cultured neurons; type: cell-based, mouse; conditions: immunofluorescence after co-incubation
HEK 293T cells = experiment: Immunofluorescence of ApoE from culture medium in HEK 293T cells; type: cell-based, human; conditions: immunofluorescence after co-incubation

Substance: ApoE2: human apolipoprotein E2, full-length 299 amino acid residues, SEQ ID NO: 12
- protein from culture medium detected inside neurons (primary cultured neurons): mainly adhered to the cell surface and hardly entered the cell; also recorded: largely could not be detected inside the primary cultured neurons; also recorded: mainly detected outside the cell membrane
- protein from culture medium detected inside cells (HEK 293T cells): mainly adhered to the cell surface and hardly entered the cell; also recorded: largely could not be detected inside the cells; also recorded: mainly detected outside the cell membrane

“Also recorded” adds a separate entry of the source.
